## Microarray screen: hit calls

Targets, with sequences 5′ to 3′:
PreQ1: PreQ1 riboswitch RNA pseudoknot, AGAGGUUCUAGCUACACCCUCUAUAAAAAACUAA. From B. subtilis. Hit rate about 0.7% of about 24,000 compounds.
TPP: TPP riboswitch RNA three-way junction, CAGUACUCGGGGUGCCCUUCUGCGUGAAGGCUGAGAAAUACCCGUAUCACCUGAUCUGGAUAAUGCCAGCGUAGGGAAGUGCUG. Hit rate about 0.7% of about 24,000 compounds.
SAM-II: SAM-II riboswitch RNA pseudoknot, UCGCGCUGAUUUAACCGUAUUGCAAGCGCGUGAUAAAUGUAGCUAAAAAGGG. Hit rate about 1% of about 21,000 compounds.

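Compounds were printed on reactive glass slides in duplicate spots, a dye-labelled oligonucleotide was laid over them, and the fluorescence left after washing was read. For the PreQ1, TPP and SAM-II riboswitches the laboratory earlier reported (doi:10.1038/s41467-019-09493-3) 1 µM RNA, 2 h, and a rule that included a mean Z-score above 3 (spot signal-to-noise against the whole library), a score well above that on a control array, and duplicate spots agreeing (coefficient of variation under 100). The data file gives only the calls; its cut-offs may differ, and compounds hitting several targets are kept. These are primary screening calls, not affinities; a compound without a hit may have attached poorly or may still bind in solution.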 Key: active = hit, inactive = tested without a hit. Compounds were drawn at random from those tested, without regard to their results. A dash means that no call is listed here.

Compound | PreQ1 | TPP | SAM-II
O=S1(=O)N=C(Nc2ccc(N3CCOCC3)c(Cl)c2)c2ccccc21 | inactive | inactive | inactive
Cc1cccc(Nc2nc3ccc(Cl)cc3n3cnnc23)c1 | inactive | inactive | -
CCCCCNc1nc2c(S(=O)(=O)c3ccccc3)nnn2c2ccccc12 | inactive | inactive | inactive
Cc1nc(CN2CCC(C(O)CCc3ccccc3)CC2)c2ccccn12 (stereo unspecified) | inactive | inactive | inactive
CC[C@@]1(O)CCN(Cc2csc(C)n2)C[C@H]1O | inactive | inactive | inactive
CO[C@@H]1[C@@H](OC(N)=O)[C@@H](O)[C@H](Oc2ccc3c(=O)c(NC(=O)c4ccc(O)c(CC=C(C)C)c4)c([O-])oc3c2C)OC1(C)C | inactive | inactive | inactive
CCC(C)C(N)c1nnc(SCC(=O)c2ccc(Cl)cc2)o1.Cl (stereo unspecified) | inactive | inactive | inactive
C#CCn1c(C(O)CC)nc2ccccc21 (stereo unspecified) | inactive | inactive | -
O=C(C1=Cc2ccccc2OC=C1)N1CCC2(CC1)OCCCC2O (stereo unspecified) | inactive | inactive | inactive
c1ccc(C2CCN(CCNC3CCCC3)C2)cc1 (stereo unspecified) | inactive | inactive | inactive
CC(C)(N)c1cn(-c2cccc(Cl)c2)nn1 | inactive | inactive | inactive
CC(Cn1cncn1)NCc1cccnc1N1CCN(c2ccccn2)CC1 (stereo unspecified) | inactive | inactive | inactive
Cc1ccc(CNc2ccc(N3CCOCC3)c(C(=O)O)c2)s1 | inactive | inactive | inactive
O=C(CCc1cc2n(n1)CCNC2)NCC(c1cccnc1)N1CCCCC1 (stereo unspecified) | inactive | inactive | inactive
Cc1nc([N+](=O)[O-])cn1-c1ccccc1N | inactive | inactive | inactive
CC(=O)c1ccc(OCC(O)CN2CCCCC2C)cc1 (stereo unspecified) | inactive | inactive | inactive
Cc1nc(-c2cc3cccc(C)c3nc2NCc2cc(F)ccc2F)no1 | inactive | inactive | -
CC12CN3CC(C)(CN(C1)C3c1cccc(N)c1)C2=O (stereo unspecified) | inactive | inactive | -
CCCn1cc(C(=O)N2CCNCC2C(=O)Nc2ccc(C)nc2)c(C)n1 (stereo unspecified) | inactive | inactive | inactive
CCC(O)c1nc2ccccc2n1CCCOc1ccc(Cl)cc1 (stereo unspecified) | inactive | inactive | -
Cn1c(=O)c2[nH]c(NCc3ccc4c(c3)OCO4)nc2n(C)c1=O | inactive | inactive | inactive
CC(NCCC(=O)NCc1ccco1)c1ccc2c(c1)OCCCO2 (stereo unspecified) | inactive | inactive | inactive
Cc1cnc2c(C(=O)N3CC[C@@H](c4ccc5c(c4)OCO5)[C@H](O)C3)cnn2c1 | inactive | inactive | inactive
Clc1cccc(-c2ccc(CNCc3ccco3)o2)c1 | inactive | inactive | -
Cc1cccc(N(CC(=O)N[C@H]2CC[C@H]2NC2CCCC2)S(C)(=O)=O)c1 | inactive | inactive | inactive
CCN1C(=O)NC(=O)C12CCN(Cc1cc3n(n1)CCCNC3)CC2 | inactive | inactive | inactive
COc1ccccc1Nc1cc(C(C)C)nc2nc(-c3cccnc3)nn12 | inactive | inactive | -
N[C@@H]1CC[C@@H](Nc2ncc(Cl)cc2Cl)C1 | active | inactive | inactive
Cc1cccc(-n2nc(C3CCOCC3)nc2CC[C@H](N)C(=O)O)c1 | inactive | inactive | inactive
C=CCNCCOCCOc1cccc(Br)c1.O=C(O)C(=O)O | inactive | inactive | inactive
O=C1c2cccc3cccc(c23)C(=O)N1CC1CCN(CC(O)COc2ccc(Cl)cc2)CC1 (stereo unspecified) | inactive | inactive | inactive
CCCS(=O)(=O)Nc1c(NC)c2ccccc2oc1=O | inactive | inactive | inactive
CN(Cc1ccccc1)c1ncccc1CNC(=O)C1CCNC1 (stereo unspecified) | inactive | inactive | inactive
Cc1cc(-c2ccccc2CO)ccc1NC(=O)c1cccnc1 | inactive | inactive | inactive
Nc1cc(Cl)c2cccnc2c1O | inactive | inactive | inactive
CC(C)C[C@H](NC(=O)c1cc2ccccc2s1)C(=O)N1CCN(C(=O)[C@H](CO)NS(=O)(=O)c2ccc(Cl)cc2Cl)CC1 | inactive | inactive | inactive
Clc1nc2sccn2c1CN1CCCC2(CCNCC2)CC1 | inactive | inactive | inactive
Nc1c(C(=O)c2ccc(Br)cc2)sc2nc(C(F)(F)F)c(C(=O)c3cccs3)cc12 | inactive | inactive | inactive
O=C(Cn1cccn1)N1CCN(Cc2ccoc2)CC(O)C1 (stereo unspecified) | inactive | inactive | inactive
Cn1c(C2=C(N)N(c3ccc(Cl)cc3)CC2=O)nc2ccccc21 | inactive | inactive | -
COc1cc2nc(N3CCN(C(=O)C4CCCO4)CC3)nc(N)c2cc1OC (stereo unspecified) | inactive | inactive | inactive
CC(C)(OCc1nn(Cc2ccccc2)c2ccccc12)C(=O)O | inactive | inactive | inactive
Cc1ccc(S(=O)(=O)N(CC(O)Cn2c3ccc(Cl)cc3c3cc(Cl)ccc32)c2ccccc2)cc1 (stereo unspecified) | inactive | inactive | inactive
OCc1ccnc(-c2cccc(C(F)(F)F)c2)c1 | inactive | inactive | inactive
CCOC(=O)c1cnc2ccc(C(=O)OC)cc2c1Nc1cccc(Cl)c1 | inactive | inactive | inactive

Repeated from the top, 5 entries:

Compound	PreQ1	TPP	SAM-II
O=S1(=O)N=C(Nc2ccc(N3CCOCC3)c(Cl)c2)c2ccccc21	inactive	inactive	inactive
Cc1cccc(Nc2nc3ccc(Cl)cc3n3cnnc23)c1	inactive	inactive	-
CCCCCNc1nc2c(S(=O)(=O)c3ccccc3)nnn2c2ccccc12	inactive	inactive	inactive
Cc1nc(CN2CCC(C(O)CCc3ccccc3)CC2)c2ccccn12 (stereo unspecified)	inactive	inactive	inactive
CC[C@@]1(O)CCN(Cc2csc(C)n2)C[C@H]1O	inactive	inactive	inactive

From ROBIN, a set of small-molecule microarray screens (doi:10.1002/anie.202211358).